# No constants are given. Whether binding was seen depends on the method and setting. Binding seen in cells or lysates may run through a third protein. Some results given as binding are weak or reduced against the parent protein; the word gives no strength.
# The chains behind the UniProt entries cited, without tags or fusion partners. Residues count along the entry.
# UniProt P09055, residues 21-798: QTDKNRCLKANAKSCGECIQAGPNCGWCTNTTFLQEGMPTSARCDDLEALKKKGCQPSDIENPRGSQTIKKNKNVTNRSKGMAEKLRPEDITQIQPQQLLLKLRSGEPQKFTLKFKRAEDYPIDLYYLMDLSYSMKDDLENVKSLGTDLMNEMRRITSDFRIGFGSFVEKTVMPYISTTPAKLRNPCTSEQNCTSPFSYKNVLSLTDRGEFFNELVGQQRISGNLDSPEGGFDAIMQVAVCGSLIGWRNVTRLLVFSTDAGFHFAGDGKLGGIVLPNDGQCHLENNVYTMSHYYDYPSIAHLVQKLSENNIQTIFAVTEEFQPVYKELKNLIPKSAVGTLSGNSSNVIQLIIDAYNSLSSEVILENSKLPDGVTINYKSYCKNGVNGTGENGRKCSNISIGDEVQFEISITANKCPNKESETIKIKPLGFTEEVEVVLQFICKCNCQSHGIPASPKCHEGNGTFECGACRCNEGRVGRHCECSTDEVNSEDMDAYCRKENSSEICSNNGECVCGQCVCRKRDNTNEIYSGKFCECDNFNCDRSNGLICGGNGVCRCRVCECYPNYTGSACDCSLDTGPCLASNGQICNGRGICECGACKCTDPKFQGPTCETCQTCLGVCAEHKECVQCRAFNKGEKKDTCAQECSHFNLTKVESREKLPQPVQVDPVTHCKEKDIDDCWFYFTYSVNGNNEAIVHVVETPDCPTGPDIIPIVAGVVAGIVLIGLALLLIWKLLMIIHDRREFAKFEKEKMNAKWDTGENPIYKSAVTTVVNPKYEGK
# Key:
# [1] = molecular target: T1, integrin α4 (endogenous in Raw264.7 macrophages) (mouse (endogenous in Raw264.7)) (UniProt Q00651); test: co-IP; Raw264.7 cells, endogenous proteins, with or without FFA (1 mM, 24 h), MG132 (10 μM) added 16 h before collecting; RIPA lysate, IP (c-Cbl or integrin α4) at 4 °C overnight, protein A/G-Sepharose, washed with NETN buffer (20 mM Tris pH 8.0, 100 mM NaCl, 1 mM EDTA, 0.5% NP-40); immunoblot for integrin β1
# T1 sequence: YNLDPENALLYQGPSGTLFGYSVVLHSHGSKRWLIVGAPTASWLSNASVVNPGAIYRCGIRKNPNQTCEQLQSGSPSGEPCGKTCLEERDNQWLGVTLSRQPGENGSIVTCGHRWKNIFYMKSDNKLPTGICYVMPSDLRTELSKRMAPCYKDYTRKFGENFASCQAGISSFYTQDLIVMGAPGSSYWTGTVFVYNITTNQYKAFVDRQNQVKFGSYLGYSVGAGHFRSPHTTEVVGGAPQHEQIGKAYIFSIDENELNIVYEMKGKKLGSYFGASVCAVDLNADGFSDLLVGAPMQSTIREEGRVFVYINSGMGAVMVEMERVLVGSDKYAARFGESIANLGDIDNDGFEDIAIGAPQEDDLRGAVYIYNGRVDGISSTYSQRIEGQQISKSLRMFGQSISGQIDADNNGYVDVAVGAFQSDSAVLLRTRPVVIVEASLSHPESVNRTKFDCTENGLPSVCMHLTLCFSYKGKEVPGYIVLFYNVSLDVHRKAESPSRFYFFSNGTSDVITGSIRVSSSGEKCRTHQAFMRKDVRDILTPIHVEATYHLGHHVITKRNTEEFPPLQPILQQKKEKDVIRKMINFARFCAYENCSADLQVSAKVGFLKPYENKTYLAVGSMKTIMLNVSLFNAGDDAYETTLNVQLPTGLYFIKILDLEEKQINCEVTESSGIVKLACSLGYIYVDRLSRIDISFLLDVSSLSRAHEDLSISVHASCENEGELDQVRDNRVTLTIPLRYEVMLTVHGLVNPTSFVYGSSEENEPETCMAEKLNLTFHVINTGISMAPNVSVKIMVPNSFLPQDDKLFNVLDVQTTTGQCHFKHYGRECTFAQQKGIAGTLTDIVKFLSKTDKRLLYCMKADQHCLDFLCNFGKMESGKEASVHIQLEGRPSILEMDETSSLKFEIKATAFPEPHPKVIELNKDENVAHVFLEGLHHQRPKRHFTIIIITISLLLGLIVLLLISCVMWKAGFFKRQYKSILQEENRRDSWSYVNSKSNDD
# [2] = molecular target: E3 ubiquitin ligase c-Cbl (endogenous in Raw264.7 macrophages) (mouse (endogenous in Raw264.7)) (UniProt P22682); test: as above
substance,measurement,setting,value
integrin β1 (endogenous in Raw264.7 macrophages) (from UniProt P09055 21-798) (receptor),binding,[1],binds
same,binding,[2],binds

# — PMC9808002
